PubChem BioAssay AID1224830, NIAID – 2016
Here is a random part of about 18,000 reagents. About 2,900 of them (16%) were called active. 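Calls are made per well; low scores hint the gene aids the LPS response, high scores that it dampens it.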 Repeated entries: four replicate wells of each siRNA pool.

Purpose: 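Host factors that control LPS-induced TNF expression in human macrophages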 (primary screen)
Cells: human THP-1 monocytic leukaemia cells, TNF dual-luciferase reporter clone, PMA-differentiated to macrophage-like cells
Reagent: siRNA pool against human genes, 50 nM
Time to read-out: LPS for 4 h, given about 3 days after siRNA transfection
Conditions: bacterial LPS (TLR4 ligand), 10 ng/ml
Detection: 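Ratio of firefly to renilla light, scaled to the plate median and expressed as a robust z-score per replicate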
Direction: TNF reporter robust z-score: higher = stronger TNF reporter response to LPS
Call rule: 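Each well counts as active if its z-score is over 2.8 or under -1.5; controls are left without a call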

target | TNF reporter robust z-score | Outcome
MAP3K21 | -0.73 | inactive
MAP3K21 | -0.46 | inactive
MAP3K21 | -1.11 | inactive
MAP3K21 | 0.33 | inactive
PTPN2 | -0.91 | inactive
PTPN2 | -1.65 | active
PTPN2 | -0.75 | inactive
PTPN2 | 0.93 | inactive
KLK2 | -0.72 | inactive
KLK2 | -0.43 | inactive
KLK2 | -0.53 | inactive
KLK2 | -1.04 | inactive
CARD9 | 1.25 | inactive
CARD9 | -0.23 | inactive
CARD9 | -0.37 | inactive
CARD9 | -0.43 | inactive
FNDC9 | -0.51 | inactive
FNDC9 | -0.68 | inactive
FNDC9 | -0.78 | inactive
FNDC9 | -0.45 | inactive
ALG6 | 0.44 | inactive
ALG6 | -0.08 | inactive
ALG6 | 0.56 | inactive
ALG6 | 1.71 | inactive
TMEM14B | -0.64 | inactive
TMEM14B | -1.02 | inactive
TMEM14B | -0.65 | inactive
RGPD2 | -1.18 | inactive
RGPD2 | -0.67 | inactive
RGPD2 | -0.97 | inactive
RGPD2 | -0.21 | inactive
CUZD1 | 0.84 | inactive
CUZD1 | -0.35 | inactive
CUZD1 | -1.18 | inactive
CUZD1 | -1.19 | inactive
PRR5 | -0.11 | inactive
PRR5 | 1.64 | inactive
PRR5 | 1.33 | inactive
PRR5 | 1.5 | inactive
RP2 | -0.2 | inactive
RP2 | 0.62 | inactive
RP2 | 0.74 | inactive
RP2 | 0.52 | inactive
PRIMPOL | 1.48 | inactive
PRIMPOL | 0.78 | inactive
PRIMPOL | 1.34 | inactive
PRIMPOL | 0.79 | inactive
COLCA1 | 0.54 | inactive
COLCA1 | 0.21 | inactive
COLCA1 | -0.07 | inactive
COLCA1 | 0.62 | inactive
AKAP14 | -1.06 | inactive
AKAP14 | -0.39 | inactive
AKAP14 | -0.16 | inactive
AKAP14 | -0.03 | inactive
ITGB5 | -0.23 | inactive
ITGB5 | 0.39 | inactive
ITGB5 | 0.26 | inactive
ITGB5 | 0.52 | inactive
TLX3 | 1.08 | inactive
TLX3 | 0.58 | inactive
TLX3 | 1.68 | inactive
TLX3 | -0.05 | inactive
S100P | -0.54 | inactive
S100P | -0.51 | inactive
S100P | -0.52 | inactive
S100P | -0.94 | inactive
FLT4 | -1.24 | inactive
FLT4 | -1.68 | active
FLT4 | -1.52 | active
FLT4 | -1.37 | inactive
PLEKHB2 | 0.04 | inactive
PLEKHB2 | -0.08 | inactive
PLEKHB2 | -0.27 | inactive
PLEKHB2 | 0.05 | inactive
MUS81 | 0.27 | inactive
MUS81 | 0.32 | inactive
MUS81 | 0.76 | inactive
MUS81 | 1.09 | inactive
TRAF3IP3 | – | inactive
TRAF3IP3 | -1.18 | inactive
TRAF3IP3 | -0.98 | inactive
TRAF3IP3 | -1.15 | inactive
TRAF3IP3 | -0.97 | inactive
CYP2F1 | 1.5 | inactive
CYP2F1 | -0.3 | inactive
CYP2F1 | 0.83 | inactive
CYP2F1 | 0.81 | inactive
KIAA1958 | 2.02 | inactive
KIAA1958 | 1.62 | inactive
KIAA1958 | 0.58 | inactive
KIAA1958 | 2.22 | inactive
POLD3 | -1.54 | active
POLD3 | -0.99 | inactive
POLD3 | -1.32 | inactive
POLD3 | -0.75 | inactive
PDE4A | -1.16 | inactive
PDE4A | -0.76 | inactive
PDE4A | -0.6 | inactive
NICN1 | -1.29 | inactive
NICN1 | -1 | inactive
NICN1 | -1.02 | inactive
NICN1 | -0.89 | inactive
HK2 | 0.79 | inactive
HK2 | -0.97 | inactive
HK2 | -0.82 | inactive
HK2 | -0.35 | inactive
SGSH | -0.11 | inactive
SGSH | -0.05 | inactive
SGSH | -0.24 | inactive
SGSH | 0.37 | inactive
